Laboratory results reported in patent publication US9131687B2, “Roseobacticides and uses thereof” (PRESIDENT AND FELLOWS OF HARVARD COLLEGE, priority 2010, dated 2015).
Some of these results come from one statement about several compounds together.

Legend:
Marinovumalgicola = experiment: Elicitation of roseobacticide production in relatives of BS107; assay type: cell-based; settings: grown in the presence of elicitor, conditions as BS107
Phaeobacter inhibens = experiment: as above; assay type: cell-based; settings: grown in the presence of elicitor, conditions as BS107

Row | SMILES | roseobacticide production (Marinovumalgicola) | roseobacticide production (Phaeobacter inhibens)
1 | COc1cc(/C=C/C(=O)O)cc(OC)c1O [Roseobacticide 15, sinapic acid] | No roseobacticides were observed | No roseobacticides were observed
2 | COc1cc(/C=C/C(=O)O)ccc1O [Roseobacticide 16, ferulic acid] | No roseobacticides were observed | No roseobacticides were observed
3 | O=C(O)/C=C/c1ccc(O)cc1 [pCA, p-coumaric acid] | No roseobacticides were observed | No roseobacticides were observed
